{"source": "patent US10350164B2", "about": "“Process for preparing a dry powder formulation comprising an anticholinergic, a corticosteroid and a beta-adrenergic” (CHIESI FARMACEUTICI S.p.A., priority 2017, dated 2019)", "assay": "Uniformity of distribution of the active ingredients in the blend by HPLC", "assay_type": "physicochemical", "protocol": "It is usually determined according to known methods, for instance by taking samples from different parts of the powder and testing the component by HPLC or other equivalent analytical methods.\nThe uniformity of distribution of the active ingredients was evaluated by withdrawing 12 samples from different parts of the blend and evaluated by HPLC.", "note": "Where a name gives a salt, the structure may show the parent alone.", "data": [{"smiles": "COc1ccc(CC(C)NCC(O)c2ccc(O)c(NC=O)c2)cc1", "note": "(centres unmarked) [FF, formoterol fumarate dihydrate]", "values": [{"measurement": "Uniformity of distribution", "setting": "Example 3 formulation (FF 6 μg/BDP 100 μg/GB 12.5 μg per 10 mg carrier), 12 samples, mean value±RSD", "result": "99.4 (±1.4)"}, {"measurement": "Uniformity of distribution", "setting": "Example 4 formulation (FF 6 μg/BDP 100 μg/GB 25 μg per 10 mg carrier)", "result": "99.6 (±1.6)"}]}]}
